Measurements taken from US10287276B2, “Heteroaryl-1,2,4-triazole and heteroaryl-tetrazole compounds for controlling ectoparasites” (Elanco Tiergesundheit AG, priority 2016, dated 2019).
Some of these results come from one statement about several compounds together.

These compounds were tested on Rhipicephalus sanguineus Ticks (Dog Tick) (assay: Activity in vivo against Rhipicephalus sanguineus ticks (dog tick) on rabbits). Details: at 60 mg/m^2, spray application on ears, 24 h, 48 h, 72 h after infestation, vs placebo, Abbott's formula.

SMILES | efficacy (EC90)
C#CCN(C(=O)c1cncc(C(F)(F)F)c1)C(C)c1ncnn1-c1ncccn1 (stereo not drawn) [Example 32, N-Prop-2-ynyl-N-[1-(2-pyrimidin-2-yl-1,2,4-triazol-3-yl)ethyl]-5-(trifluoromethyl)pyridine-3-carboxamide] | more than 90%
C#CCN(C(=O)c1cc(Cl)cc(C(F)(F)F)c1)C(C)c1ncnn1-c1ncccn1 (stereo not drawn) [Example 41, 3-Chloro-N-prop-2-ynyl-N-[1-(2-pyrimidin-2-yl-1,2,4-triazol-3-yl)ethyl]-5-(trifluoromethyl)benzamide] | more than 90%
CC(c1ncnn1-c1ncccn1)N(CC1CC1)C(=O)c1cncc(C(F)(F)F)c1 (stereo not drawn) [Example 28, N-(Cyclopropylmethyl)-N-[1-(2-pyrimidin-2-yl-1,2,4-triazol-3-yl)ethyl]-5-(trifluoromethyl)pyridine-3-carboxamide] | more than 90%
CC(c1ncnn1-c1ncccn1)N(CC1CC1)C(=O)c1cc(Cl)cc(C(F)(F)F)c1 (stereo not drawn) [Example 40, 3-Chloro-N-(cyclopropylmethyl)-N-[1-(2-pyrimidin-2-yl-1,2,4-triazol-3-yl)ethyl]-5-(trifluoromethyl)benzamide] | more than 90%
C#CCN(C(=O)c1cc(C(F)(F)F)cc(C(F)(F)F)c1)C(C)c1ncnn1-c1ncccn1 (stereo not drawn) [Example 35, N-Prop-2-ynyl-N-[1-(2-pyrimidin-2-yl-1,2,4-triazol-3-yl)ethyl]-3,5-bis(trifluoromethyl)benzamide] | more than 90%
CC(c1ncnn1-c1ncccn1)N(CC1CC1)C(=O)c1cc(C(F)(F)F)cc(C(F)(F)F)c1 (stereo not drawn) [Example 48, N-(Cyclopropylmethyl)-N-[1-(2-pyrimidin-2-yl-1,2,4-triazol-3-yl)ethyl]-3,5-bis(trifluoromethyl)benzamide] | more than 90%
